# The supplement of paper PMC12542422
# ± gives the standard deviation of the averaged measurements. Some of the results follow. These are raw signals, not scaled to a control.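 HeLa cells imaged for ribosome-assembly readouts (ENP1 staining with or without export block, or inducible tagged ribosomal protein reporters); machine learning classified each cell's signal location against solvent (DMSO) controls. Hits exceeded the DMSO false-positive mean by five standard deviations, then were visually confirmed; three biological replicates.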
# How the values were obtained:
# [1] = tested on: HeLa K (ENP1 immunofluorescence, +LMB); assay: fraction of cells with nucleolar or nucleolar/nucleoplasmic ENP1 signal (MainHitrate); higher = more cells with nucleolar/nuclear readout signal (for ENP1 -LMB: less RNAPI inhibition; for +LMB ENP1 and RP reporters: stronger nuclear/nucleolar retention, i.e. ribosome biogenesis defect); conditions: concentration: 1 µM; treatment time: 6 h; ENP1 +LMB; leptomycin B: 20 nM, last 1.5 h
# [2] = tested on: HeLa K (ENP1 immunofluorescence, no LMB); assay: as above; conditions: concentration: 1 µM; treatment time: 6 h; ENP1 -LMB; leptomycin B: none
# HeLa RPS2-YFP reporter = assay: fraction of reporter-positive cells with nuclear (nucleolar or nucleolar/nucleoplasmic) RPS2-YFP (MainHitrate); higher = more cells with nucleolar/nuclear readout signal (for ENP1 -LMB: less RNAPI inhibition; for +LMB ENP1 and RP reporters: stronger nuclear/nucleolar retention, i.e. ribosome biogenesis defect); conditions: concentration: 1 µM; treatment time: 6 h
# HeLa RPL29-GFP reporter = assay: fraction of reporter-positive cells with nuclear (nucleolar or nucleolar/nucleoplasmic) RPL29-GFP (MainHitrate); higher = more cells with nucleolar/nuclear readout signal (for ENP1 -LMB: less RNAPI inhibition; for +LMB ENP1 and RP reporters: stronger nuclear/nucleolar retention, i.e. ribosome biogenesis defect); conditions: concentration: 1 µM; treatment time: 6 h
SMILES,fraction [1],fraction [2],fraction of reporter-positive cells with nuclear (HeLa RPS2-YFP reporter),fraction of reporter-positive cells with nuclear (HeLa RPL29-GFP reporter)
CC1=NN(c2ccc(C)c(C)c2)C(=O)/C1=N\Nc1cccc(-c2cccc(C(=O)O)c2)c1O,0.109 ± 0.15,0.989 ± 0.019,0.111 ± 0.069,0.243 ± 0.062
NCCc1c[nH]cn1 [Histamine Phosphate],0.0591 ± 0.078,0.993 ± 0.012,0.115 ± 0.091,0.216 ± 0.065
O=C(O)c1cccnc1 [Niacin (Nicotinic acid)],0.0871 ± 0.11,0.9984 ± 0.0028,0.118 ± 0.086,0.216 ± 0.059
C[C@H](CS)C(=O)N1CCC[C@H]1C(=O)O [Captopril (Capoten)],0.103 ± 0.15,0.994 ± 0.011,0.128 ± 0.11,0.222 ± 0.065
CCCCC1(COC(=O)CCC(=O)O)C(=O)N(c2ccccc2)N(c2ccccc2)C1=O [Suxibuzone],0.175 ± 0.23,0.9953 ± 0.0081,0.181 ± 0.18,0.308 ± 0.3
CCCCCCCCCC(=O)N[C@H]1[C@H](Oc2c3cc4cc2Oc2ccc(cc2Cl)[C@@H](O[C@@H]2O[C@H](CO)[C@@H](O)[C@H](O)[C@H]2NC(C)=O)[C@@H]2NC(=O)[C@H](NC(=O)[C@@H]4NC(=O)[C@H]4NC(=O)[C@@H](Cc5ccc(c(Cl)c5)O3)NC(=O)[C@H](N)c3ccc(O)c(c3)Oc3cc(O)cc4c3)c3ccc(O)c(c3)-c3c(OC4O[C@H](CO)[C@@H](O)[C@H](O)[C@@H]4O)cc(O)cc3[C@@H](C(=O)O)NC2=O)O[C@H](CO)[C@@H](O)[C@@H]1O (some centres not stated) [Teicoplanin],0.0966 ± 0.12,0.9987 ± 0.0023,0.0942 ± 0.079,0.197 ± 0.081
NC(=O)c1cnccn1 [Pyrazinamide (Pyrazinoic acid amide)],0.131 ± 0.15,0.999 ± 0.0018,0.116 ± 0.062,0.196 ± 0.086
Oc1ncnc2[nH]ncc12 [Allopurinol (Zyloprim)],0.191 ± 0.25,0.9984 ± 0.0027,0.103 ± 0.059,0.226 ± 0.066
